This assay can be described thus: qHTS Assay for Lipid Storage Modulators in Drosophila S3 Cells.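 On cell number change: cells counted by Cell Tracker Red CMTPX staining in the red channel.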 As to conditions: BODIPY lipid droplet fluorescence, 18-24 h; for cell number change: measured here: cell count max response, cells fed with added oleic acid. A digest of the protocol:
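Laser-scanning cytometry quantifies lipid droplet accumulation (500–530 nm total intensity; droplet/cell object ratio) in oleic acid-fed (400 uM added) Drosophila S3 cells treated with a concentration series. 20 uM Triacsin C defined 100% inhibition.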
A general note: In qHTS, concentration-response curves come from the screen itself.

Where [1] appears, read: measured here: cell number channel AC50, cells fed with added oleic acid.
[2] abbreviates: measured here: lipid fluorescence (Fed channel) AC50, cells fed with added oleic acid.

The list shows a part of the results. Shown are side measurements of this screen, not its main read-out; they come without a call. Compounds called inactive in the main read-out are mostly missing here. Words in brackets tell the shape of the fitted curve; partial curves, single points and poor fits give uncertain potencies.

The term AC50 denotes the midpoint of the concentration-response curve, whichever way the signal moves. The low end stands for greater potency, the high end for weaker potency. For `O=C(CS(=O)(=O)Cc1ccccc1)Nc1nnc(C2CCCCC2)s1`, the cell number change is -3.85%. Moreover, the AC50 under setting [1] was 0.731 µM [falling, full curve]. Under setting [2], the AC50 was 0.13 µM [falling, full curve, poor fit].
`O=S(=O)(c1ccc2ccccc2c1)N(CC1CO1)c1ccccc1` (configuration not stated): the cell number change is -3.1%. Besides, the AC50 under setting [2] was 10.3 µM [falling, partial curve, poor fit].
As for `COC(=O)C1(C)NC(c2ccc(OC)cc2)C2C(=O)N(c3ccccc3)C(=O)C21` (configuration not stated), the cell number change was 25%.
For `Clc1ccccc1C1CC(c2ccccc2)Nc2ncnn21` (configuration not stated), under setting [1], the AC50 is 0.13 µM [rising, full curve, poor fit].
As for `CCN1C(=O)CC(N2CCC(Nc3ccc(OC)cc3)CC2)C1=O` (configuration not stated), the cell number change was -3.99%. The AC50 under setting [1] is 1.46 µM [falling, partial curve].
Regarding `COc1ccccc1N1CCN(C2CCCN(C(=O)CCc3c(C)noc3C)C2)CC1` (configuration not stated), the cell number change came out at 0.917%. The AC50 under setting [2] is 29.1 µM [falling, single point].
Regarding `CCOC(=O)CC1Sc2ccccc2NC1=S` (configuration not stated), the cell number change amounted to 28.5%.
On to `COC(=O)c1ccc(CSc2nnc(Nc3cccc(OC)c3)s2)o1`, for which the cell number change came out at 20.4%. In addition, under setting [2], the AC50 is 2.31 µM [rising, single point].
As for `CCN(CC)c1ccc(/C=N\N2CCN(Cc3ccc(C)cc3)CC2)cc1`, the cell number change was -74.1%. Besides, the AC50 under setting [1] was 29.1 µM [falling, single point].
For `Cc1nnc(NC(=O)c2oc3c(ccc4ccccc43)c2C)s1`, the cell number change is -6.81%. Also, the AC50 under setting [2] was 29.1 µM [falling, single point].
Regarding `COc1ccc(-c2nn(-c3ccccc3)cc2/C=N/O)cc1`, the cell number change was -46.8%. For the same molecule, the AC50 under setting [1] is 20.6 µM [falling, single point]. Also, the AC50 under setting [2] was 23.1 µM [falling, single point].
For `Brc1ccc(CSc2nnc(Cc3c[nH]c4ccccc34)o2)cc1`, the cell number change is -0.383%. Under setting [2], the AC50 is 29.1 µM [rising, single point].
As for `COc1ccccc1-c1noc(-c2ccco2)n1`, the AC50 is 0.259 µM [falling, full curve, poor fit] under setting [1] and 0.92 µM [falling, full curve, poor fit] under setting [2].
`CCOC(=O)N1CCN(C(=O)C2CC(c3cc(OC)ccc3OC)=NO2)CC1` (configuration not stated): the cell number change is -45.6%. Moreover, under setting [1], the AC50 was 8.2 µM [falling, partial curve, poor fit]. Besides, the AC50 under setting [2] is 1.46 µM [falling, full curve].
With `O=C(Cn1nc(-c2cccs2)ccc1=O)Nc1ccc(Br)cc1`, the cell number change was -25%.
Regarding `Cc1ccc(C)c(NC(=S)NNc2ccc(F)cc2F)c1`, the cell number change was 4.17%. Moreover, under setting [2], the AC50 is 6.51 µM [rising, single point].
For the molecule `COc1cc(-c2nnc3n2CCCCC3)cc(OC)c1OC`, the cell number change is -0.551%. Under setting [2], the AC50 was 6.51 µM [falling, single point].
For `O=C1C(=O)c2c(C(=O)c3ccccc3)coc2-c2ccccc21`, the cell number change was -76.3%. The AC50 under setting [1] is 18.4 µM [falling, single point]. Also, the AC50 under setting [2] is 0.206 µM [falling, full curve, poor fit].
`CC1(C)CC(=O)c2cc(C(=O)NC3CCSC3=O)c(=O)n(-c3ccc(Cl)cc3)c2C1` (configuration not stated): the AC50 is 6.51 µM [rising, single point] under setting [1] and 23.1 µM [rising, single point] under setting [2].
Regarding `Cc1ccc(CCNC(=O)CC(C)CC2=NS(=O)(=O)c3ccccc3N2)cc1` (configuration not stated), the AC50 under setting [2] is 10.3 µM [rising, partial curve].
For the molecule `CCOC(=O)c1cnc2ccc(OCC)cc2c1NCCCN1CCOCC1`, the cell number change was -38.1%. Besides, the AC50 under setting [1] was 8.2 µM [falling, partial curve]. In addition, the AC50 under setting [2] is 1.03 µM [falling, partial curve].
As to `CCN(CC)c1ccc(/C=N/NC(=O)c2ccoc2C)c(O)c1`, the cell number change is -34.8%. Also, the AC50 under setting [1] is 8.2 µM [falling, single point]. The AC50 under setting [2] was 18.4 µM [falling, single point].
On to `CCC(C)(C)n1nnnc1CN1CCc2ccccc21`, for which the cell number change turned out to be 51.8%. Under setting [1], the AC50 is 16.4 µM [rising, single point].
Consider `CCOC(=O)CC(=O)CSc1ncnc2c1cnn2-c1ccccc1`, for which the cell number change is -18.4%. In addition, the AC50 under setting [2] was 6.51 µM [rising, single point].
For the molecule `Cc1ccc(/C=N/NC(=O)c2cc(C3CC3)nc3ccccc23)o1`, the cell number change was -31.1%. The AC50 under setting [1] is 0.0058 µM [falling, full curve, poor fit].
Consider `O=S(=O)(NCc1ccco1)N1CCOCC1`, for which the cell number change came to 1.6%. The AC50 under setting [2] is 0.00517 µM [falling, full curve, poor fit].
Regarding `COc1ccc(CCNC(=O)CSCc2ccc(Br)cc2)cc1OC`, the cell number change is -27%. The AC50 under setting [2] is 29.1 µM [falling, single point].
Regarding `COCCCNc1nc2c(c(=O)[nH]c(=O)n2C)n1CC(O)COc1ccccc1C` (configuration not stated), the cell number change was -29.6%. Besides, the AC50 under setting [1] was 0.103 µM [falling, full curve, poor fit]. In addition, under setting [2], the AC50 is 3.66 µM [falling, full curve].
Turning to `O=C(CC(c1ccccc1)c1ccccc1)Nc1ccc(Cl)cn1`, the cell number change was 60.7%. Further, under setting [1], the AC50 is 1.3 µM [rising, full curve]. Also, under setting [2], the AC50 was 2.06 µM [rising, partial curve].
On to `Cc1nc(C)c(C(=O)N2CCCC(C(=O)c3ccc4ccccc4c3)C2)s1` (configuration not stated), for which the cell number change is -47.5%. Besides, the AC50 under setting [1] is 29.1 µM [falling, single point]. Besides, under setting [2], the half-maximal activity concentration (AC50) was 29.1 µM [falling, single point].
Take `Cc1nc2nc(C)c(CCC(=O)N3CCN(c4ccccc4)CC3)c(C)n2n1`: the AC50 by setting is: under setting [1], 1.84 µM [rising, partial curve]; under setting [2], 0.731 µM [rising, single point].
For the molecule `N#CC1=C(S)N=C(N)C(c2nc(-c3ccccc3)cs2)C12CCCCC2` (configuration not stated), under setting [1], the AC50 was 2.59 µM [rising, partial curve, poor fit].
Consider `Cc1cc(C(=O)Nc2ccccc2C(=O)O)ccc1NC(=O)COc1ccccc1Cl`, for which the cell number change amounted to 21.1%. In addition, the AC50 under setting [2] is 8.2 µM [rising, partial curve].
As to `CC(C)c1ccc(NS(=O)(=O)c2ccc(Cl)nc2)cc1`, the cell number change was -34.5%. Besides, the AC50 under setting [1] was 32.6 µM [falling, single point]. Moreover, the AC50 under setting [2] is 29.1 µM [falling, single point].
On to `CCN(CC)CCCNC(=O)c1ccc(S(=O)(=O)Nc2ccc(C)c(C)c2)cc1`, for which the cell number change worked out at 1.3%. Under setting [2], the AC50 was 6.51 µM [falling, partial curve, poor fit].
Turning to `Cc1ccccc1NC(=O)COc1ccc(Br)cc1CNCCCO`, the cell number change was -0.673%.
In the case of `COc1ccc(C)cc1NC(=O)COC(=O)CCC(=O)c1cccs1`, the cell number change amounted to 13.2%. The AC50 under setting [2] was 4.11 µM [rising, full curve, poor fit].
As to `Cc1ccccc1-c1noc(-c2ccc(O)cc2)n1`, the cell number change was -63%. Besides, under setting [1], the AC50 is 13 µM [falling, partial curve]. Under setting [2], the AC50 is 13 µM [falling, partial curve].
Turning to `O=C(NCC1CCCO1)c1ccccc1NC(=O)c1cccc2ccccc12` (configuration not stated), the cell number change was -12.5%. The AC50 under setting [1] was 0.13 µM [rising, full curve, poor fit]. In addition, the AC50 under setting [2] is 29.1 µM [falling, partial curve, poor fit].
As for `Cc1cc(C)nc(NC(=O)C(c2ccccc2)c2ccccc2)c1`, the cell number change was found to be 37.7%. The AC50 under setting [1] was 6.51 µM [rising, partial curve]. Besides, under setting [2], the AC50 was 9.2 µM [rising, partial curve].
Take `CCOP(=O)(c1ccccc1)c1nc(-c2ccccc2C)oc1N1CCCCC1` (configuration not stated): the cell number change is -48.1%. The AC50 under setting [1] was 29.1 µM [falling, single point].
On to `Cn1c(CNc2ccccc2)nc2ccccc21`, for which the cell number change was -31.8%. Besides, the AC50 under setting [1] was 5.8 µM [falling, partial curve]. Moreover, under setting [2], the AC50 is 0.58 µM [rising, full curve, poor fit].
Regarding `CCCC(C(=O)n1nc(C)cc1C)C(NS(=O)(=O)c1ccc(C)cc1)c1ccccc1` (configuration not stated), the cell number change is -44.7%. Also, under setting [1], the AC50 was 25.9 µM [falling, partial curve, poor fit]. The AC50 under setting [2] was 1.84 µM [rising, partial curve, poor fit].
On to `O=c1cc(-c2ccc(O)c(-c3c(O)cc(O)c4c(=O)cc(-c5ccc(O)cc5)oc34)c2)oc2cc(O)cc(O)c12`, for which the cell number change was -12.9%. The AC50 under setting [2] is 0.013 µM [rising, full curve, poor fit].
Consider `Cc1ccccc1C(=O)NCCCCc1ccccc1`, for which the cell number change was 5.41%. In addition, the AC50 under setting [2] is 8.2 µM [rising, partial curve].
In the case of `Cc1ccc(N2C(=O)c3ccccc3C2C(=O)c2ccc(O)cc2O)cc1` (configuration not stated), the cell number change was determined as 5.06%. For the same molecule, the AC50 under setting [2] is 0.731 µM [falling, full curve, poor fit].
`CCC(Cc1ccccc1)NC(=O)C1=C(C)C(=O)OC12CCC(C)CC2` (configuration not stated): the cell number change was -30.6%. The AC50 under setting [1] is 0.411 µM [falling, full curve]. Also, under setting [2], the AC50 is 1.64 µM [falling, partial curve, poor fit].
In the case of `CC(C)C[C@H]1CN=C(N(C)C)N1CCCCc1ccccc1`, the cell number change came out at 17.4%. The AC50 under setting [2] was 18.4 µM [rising, single point].
For the molecule `Cc1ccc2nc3c(cc(C#N)c(=O)n3CC3CCCO3)c(=O)n2c1` (configuration not stated), the cell number change was 2.71%. Besides, under setting [2], the AC50 is 3.26 µM [rising, single point].
In the case of `O=C(c1ccc(N2CCN(C(=O)c3ccc(F)c(F)c3)CC2)cc1)c1cccc(F)c1`, the cell number change was found to be 11.4%.
On to `COc1ccc(-c2nnn(CC(=O)N(CC(=O)NC3CCCC3)Cc3ccco3)n2)cc1OC`, for which the cell number change was -29.5%. Also, the AC50 under setting [2] is 23.1 µM [falling, single point].
With `CCOc1ccccc1CN1C(=O)NC2(CCCCCC2)C1=O`, under setting [2], the AC50 was 29.1 µM [falling, single point].
Consider `O=C(CSC1=NCCS1)NCc1ccco1`, for which the cell number change is -12.5%. Also, the AC50 under setting [2] was 25.9 µM [falling, partial curve].
With `COc1cc(/C=C/c2cc(OC(C)=O)c3ccccc3n2)c(OC(C)=O)c([N+](=O)[O-])c1`, the cell number change was -38.4%. Moreover, the AC50 under setting [1] is 3.26 µM [falling, full curve]. Moreover, the AC50 under setting [2] is 3.66 µM [falling, full curve].
Turning to `Cc1cc(C)n(CCc2nc(-c3ccc(-c4ccccc4)cc3)cs2)n1`, under setting [2], the AC50 was 1.84 µM [rising, partial curve].

Source of the values: PubChem BioAssay AID2685 (National Center for Advancing Translational Sciences (NCATS), 2010).
